Test results taken from publication doi:10.1101/2021.03.18.436048.
Results are given in words; binding and its absence hold for the method and conditions named. Binding seen in cells or lysates may run through a third protein. Some entries that bind do so weakly or less than the wild type. Where a sequence is shown, tags or fusion partners need not be part of it.

Protein sequences, listed by entry. Tags and fused reporters are not part of them.
UniProt P84077: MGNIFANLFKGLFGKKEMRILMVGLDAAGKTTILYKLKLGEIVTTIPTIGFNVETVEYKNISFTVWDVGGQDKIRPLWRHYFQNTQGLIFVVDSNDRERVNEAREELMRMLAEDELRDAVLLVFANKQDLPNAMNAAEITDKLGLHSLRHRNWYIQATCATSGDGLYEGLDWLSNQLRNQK

Target: T1, Glutathione S Transferase (GST)-tagged GAT domain of GGA3 (UniProt Q9NZ52)
T1 sequence: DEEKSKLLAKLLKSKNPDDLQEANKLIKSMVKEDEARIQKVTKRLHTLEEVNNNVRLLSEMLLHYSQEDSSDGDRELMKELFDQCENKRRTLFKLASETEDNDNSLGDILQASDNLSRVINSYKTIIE
Experiment: pull-down

Question: With “Arf1 (ADP-ribosylation factor-1) (from UniProt P84077 1-181)” as the substance, how does the binding read?
Answer: Its binding is “binds”.
